# Measurements as given in paper PMC12409426.
# Sequences of proteins named here, by UniProt entry; tags and fusion partners are left off.
# UniProt Q00987: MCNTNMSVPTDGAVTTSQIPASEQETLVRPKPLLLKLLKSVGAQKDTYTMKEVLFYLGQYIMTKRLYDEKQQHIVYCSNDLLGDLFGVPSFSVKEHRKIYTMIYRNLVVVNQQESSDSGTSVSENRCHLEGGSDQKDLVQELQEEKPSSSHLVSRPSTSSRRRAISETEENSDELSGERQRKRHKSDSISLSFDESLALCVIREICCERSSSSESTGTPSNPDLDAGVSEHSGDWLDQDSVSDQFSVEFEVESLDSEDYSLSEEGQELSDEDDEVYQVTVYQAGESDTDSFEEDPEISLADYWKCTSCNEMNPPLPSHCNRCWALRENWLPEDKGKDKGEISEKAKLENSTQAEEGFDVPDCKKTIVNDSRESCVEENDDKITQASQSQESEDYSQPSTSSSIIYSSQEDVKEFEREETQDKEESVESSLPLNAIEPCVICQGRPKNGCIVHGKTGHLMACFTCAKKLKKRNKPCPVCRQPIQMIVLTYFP
# UniProt P04792: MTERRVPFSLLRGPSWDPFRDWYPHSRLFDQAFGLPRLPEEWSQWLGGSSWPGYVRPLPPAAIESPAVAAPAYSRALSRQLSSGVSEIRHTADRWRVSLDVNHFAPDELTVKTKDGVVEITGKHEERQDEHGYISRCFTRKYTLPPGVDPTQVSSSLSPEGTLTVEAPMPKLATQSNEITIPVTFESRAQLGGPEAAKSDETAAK
# UniProt Q99755: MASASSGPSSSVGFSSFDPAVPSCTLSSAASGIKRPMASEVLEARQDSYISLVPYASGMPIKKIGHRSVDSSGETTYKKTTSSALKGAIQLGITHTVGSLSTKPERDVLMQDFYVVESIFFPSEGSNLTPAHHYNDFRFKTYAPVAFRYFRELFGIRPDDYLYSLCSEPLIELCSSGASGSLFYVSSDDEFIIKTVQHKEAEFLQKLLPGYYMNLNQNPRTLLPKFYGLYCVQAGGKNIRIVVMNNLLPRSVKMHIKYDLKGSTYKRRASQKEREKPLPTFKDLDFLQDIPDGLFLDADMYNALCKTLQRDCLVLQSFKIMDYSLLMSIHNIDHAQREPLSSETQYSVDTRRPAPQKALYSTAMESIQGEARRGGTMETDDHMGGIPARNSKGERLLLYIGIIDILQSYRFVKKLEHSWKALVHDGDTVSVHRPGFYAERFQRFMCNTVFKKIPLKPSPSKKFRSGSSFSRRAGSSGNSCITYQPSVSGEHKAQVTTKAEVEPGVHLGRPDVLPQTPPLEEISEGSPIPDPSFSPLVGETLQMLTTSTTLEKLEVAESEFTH
# No constants are given. Whether binding was seen depends on the method and setting. For part of these data: Binding seen in cells or lysates may run through a third protein. Some binding calls cover weakened binding; strength is not graded here.
# Legend:
# [1] = target: MDM2 (endogenous) (human (endogenous in MDA-MB-231)) (UniProt Q00987); assay: co-IP; endogenous MDM2 immunoprecipitated with anti-MDM2 (SMP14) agarose from RIPA lysates, 4 °C 24 h, IB; cells treated with vehicle or 30 μM cisplatin for 24 h
# [2] = target: MDM2 (endogenous) (human (endogenous in MDA-MB-231)) (UniProt Q00987); assay: proximity ligation; Duolink PLA on fixed, permeabilised cells (MDA-MB-231) treated with vehicle or 30 μM cisplatin for 24 h (PIPKIα siRNA as control); nuclear foci counted
# [3] = target: His-tagged MDM2 (recombinant, bacteria-expressed) (UniProt Q00987); assay: pull-down; recombinant MDM2 (0.1-1 μg) incubated with one recombinant partner, pulled down with anti-MDM2 (SMP14) agarose, IB; overnight 4 °C in 50 mM Tris-HCl pH 8.0, 50 mM NaCl, 80 mM KCl, 0.05% Tween-20; PIP2 (0-50 μM) added in some panels; both purified
Substance,binding [1],binding [2],binding [3]
HSP27 (endogenous) (from UniProt P04792 1-205),binds,binds,
"HSP27 (recombinant, His-tagged) (from UniProt P04792 1-205)",,,binds
"PIPKIα (recombinant, His-tagged) (from UniProt Q99755 1-562) (enzyme)",,,binds
PIPKIα (endogenous) (from UniProt Q99755 1-562) (enzyme),binds,binds,
